Data as given in article PMC2834593, “NMR characterisation of the minimal interacting regions of centrosomal proteins 4.1R and NuMA1: effect of phosphorylation” (BMC Biochemistry, 2010).
No constants are given. Whether binding was seen depends on the method and setting.

T1: 4.1R-CTD64 (last 64 amino acids of the C-terminal domain of human protein 4.1R) (human)
T1 sequence (chain, 15N labelled): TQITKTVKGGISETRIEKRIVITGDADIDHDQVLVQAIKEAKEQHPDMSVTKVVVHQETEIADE


Tests used:
[1] = biological target: T1, 4.1R-CTD64 (last 64 amino acids of the C-terminal domain of human protein 4.1R) (human); assay: NMR titration; 15N labelled 4.1R-CTD64 (0.1 mM, 100 mM Na2HPO4, 90% H2O/10% D2O) titrated with NuMA1 peptide up to 20:1, followed by 1H-15N HSQC, pH 4.0, 25°C; both purified
[2] = biological target: T1, 4.1R-CTD64 (last 64 amino acids of the C-terminal domain of human protein 4.1R) (human); assay: NMR titration; 15N labelled 4.1R-CTD64 (0.1 mM, 100 mM Na2HPO4, 90% H2O/10% D2O) titrated with NuMA1 peptide up to 20:1, followed by 1H-15N HSQC, pH 4.9, 25°C; chemical shift perturbation analysis; both purified

Binder | binding [1] | binding [2]
DSGRKTRSARRRTTQIINITMTKKLD (acetyl on the N-terminus; C-terminal amide) [NuMA1 interacting peptide (N1I), residues 1785-1810 of NuMA1] | no binding (condition: at pH 4 (N1I:4.1R-CTD64, 20:1)) | –
LDSLGDVFLDSGRKTRSARRR (acetyl on the N-terminus; C-terminal amide) [NuMA1 overlapping peptide (N1O), residues 1776-1796 of NuMA1] | – | no binding (tested: up to 20:1 N1O to 4.1R-CTD64)
